Measurements published in publication PMC12377818.
Results are given in words; binding and its absence hold for the method and conditions named. Binding seen in cells or lysates may run through a third protein. Some binding calls cover weakened binding; strength is not graded here. Each block holds one binder with its values, some of them ahead of it.

Assays:
[1] = target: T1, PDHA2 (pyruvate dehydrogenase E1 subunit alpha 2) (mouse (endogenous in testis)) (UniProt P35487); assay: co-IP; IP with anti-PDHA2, anti-PDHA1 and anti-PDHB antibodies on Dynabeads Protein G from adult Pdha2+/- and Pdha2-/- testis lysates (NP40 lysis buffer, 1 h at 4°C), then western blot
T1 sequence: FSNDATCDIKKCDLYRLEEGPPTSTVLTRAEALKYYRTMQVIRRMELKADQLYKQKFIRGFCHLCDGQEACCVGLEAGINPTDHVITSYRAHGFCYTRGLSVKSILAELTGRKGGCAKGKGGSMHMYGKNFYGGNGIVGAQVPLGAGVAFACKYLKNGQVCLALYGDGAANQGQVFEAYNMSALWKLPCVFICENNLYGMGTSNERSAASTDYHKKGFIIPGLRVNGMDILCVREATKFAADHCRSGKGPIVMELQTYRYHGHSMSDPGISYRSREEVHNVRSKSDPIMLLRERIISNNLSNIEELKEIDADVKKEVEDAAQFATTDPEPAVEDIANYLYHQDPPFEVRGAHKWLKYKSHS

[2] = target: T2, PDHB (pyruvate dehydrogenase E1 subunit beta) (mouse (endogenous in testis)) (UniProt Q9D051); assay: as above
T2 sequence: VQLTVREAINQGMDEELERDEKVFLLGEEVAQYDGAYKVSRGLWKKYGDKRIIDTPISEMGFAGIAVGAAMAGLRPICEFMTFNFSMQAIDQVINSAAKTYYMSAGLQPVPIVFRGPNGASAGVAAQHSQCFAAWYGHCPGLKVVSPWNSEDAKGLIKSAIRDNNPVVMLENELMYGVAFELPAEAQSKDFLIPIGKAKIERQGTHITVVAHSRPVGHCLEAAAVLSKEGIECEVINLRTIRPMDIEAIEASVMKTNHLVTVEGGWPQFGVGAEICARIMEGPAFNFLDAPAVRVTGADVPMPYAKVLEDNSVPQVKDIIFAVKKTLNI

binding [1]: binds
B1: PDHB (pyruvate dehydrogenase E1 subunit beta) (protein, UniProt Q9D051 31-359)
chain: T2 sequence

binding [1]: binds
binding [2]: binds
B2: PDHA1 (pyruvate dehydrogenase E1 subunit alpha 1) (protein, UniProt P35486 30-390)
chain: FANDATFEIKKCDLHRLEEGPPVTTVLTREDGLKYYRMMQTVRRMELKADQLYKQKIIRGFCHLCDGQEACCVGLEAGINPTDHLITAYRAHGFTFTRGLPVRAILAELTGRRGGCAKGKGGSMHMYAKNFYGGNGIVGAQVPLGAGIALACKYNGKDEVCLTLYGDGAANQGQIFEAYNMAALWKLPCIFICENNRYGMGTSVERAAASTDYYKRGDFIPGLRVDGMDILCVREATKFAAAYCRSGKGPILMELQTYRYHGHSMSDPGVSYRTREEIQEVRSKSDPIMLLKDRMVNSNLASVEELKEIDVEVRKEIEDAAQFATADPEPPLEELGYHIYSSDPPFEVRGANQWIKFKSVS
